According to PMC4422300:
Residue numbers refer to the chain shown, from its start. Names may count otherwise. Results are given in words; binding and its absence hold for the method and conditions named. Binding seen in cells or lysates may run through a third protein. Some entries that bind do so weakly or less than the wild type.

Key:
[1] = molecular target: T1, BAK (wild type), reconstituted in HCT116 cells lacking both BAK and BAX, Q16611; test: cross-linking; 70-100 ug of mitochondria isolated from cells (with or without Chk1 inhibitor SB-218078 for 30 min; alone, UV or etoposide for 8 hrs) crosslinked with 10 mM BMH; BAK detected by western blot; conditions: remark: other sources report otherwise
T1 chain: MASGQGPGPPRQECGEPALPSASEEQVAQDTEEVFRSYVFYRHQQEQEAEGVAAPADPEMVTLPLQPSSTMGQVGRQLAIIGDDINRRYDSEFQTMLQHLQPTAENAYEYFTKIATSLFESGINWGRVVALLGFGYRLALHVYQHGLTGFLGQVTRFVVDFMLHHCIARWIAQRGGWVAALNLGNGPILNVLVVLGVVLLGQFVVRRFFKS

[2] = molecular target: T1, BAK (wild type), reconstituted in …; test: cross-linking; same mitochondrial preparations crosslinked with 10 mM BMOE, which detects only monomer and dimer forms of BAK; BAK detected by western blot; conditions: remark: other sources report otherwise
[3] = molecular target: T2, Checkpoint kinase Chk1 (human (endogenous in HCT116)) (UniProt O14757); test: co-IP; mitochondrial extracts (± UV); immunoprecipitation with anti-Chk1 ab, immunoblot for BAK, PUMA, Bcl-xL
T2 sequence: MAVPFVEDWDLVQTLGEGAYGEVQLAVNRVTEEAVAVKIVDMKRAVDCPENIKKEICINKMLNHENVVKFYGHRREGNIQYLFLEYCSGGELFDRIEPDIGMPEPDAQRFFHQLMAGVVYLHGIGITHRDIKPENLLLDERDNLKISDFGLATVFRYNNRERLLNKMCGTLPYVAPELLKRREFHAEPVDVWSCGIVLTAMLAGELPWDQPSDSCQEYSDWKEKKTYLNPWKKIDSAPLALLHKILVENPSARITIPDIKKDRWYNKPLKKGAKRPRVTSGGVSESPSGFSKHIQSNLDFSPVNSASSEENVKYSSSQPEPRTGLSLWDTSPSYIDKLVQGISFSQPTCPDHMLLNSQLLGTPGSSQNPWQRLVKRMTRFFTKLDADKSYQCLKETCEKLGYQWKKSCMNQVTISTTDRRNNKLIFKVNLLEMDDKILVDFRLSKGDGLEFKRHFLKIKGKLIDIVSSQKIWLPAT

BAK Y108A mutant = BAK Y108A mutant (UniProt Q16611); test: cross-linking; 70-100 ug of mitochondria isolated from cells (with or without Chk1 inhibitor SB-218078 for 30 min; alone, UV or etoposide for 8 hrs) crosslinked with 10 mM BMH; BAK detected by western blot
BAK S117A mutant = BAK S117A mutant (UniProt Q16611); test: as above
[4] = molecular target: T1, BAK (wild type), reconstituted in …; test: co-IP; mitochondria of HCT116-WT BAK cells (with or without Chk1 inhibitor, ± UV) solubilised in 1% CHAPS buffer; immunoprecipitation with anti-BAK ab (Y164), immunoblot for Bcl-xL, PUMA, Bim; conditions: remark: other sources report otherwise

B1: BAK (wild type), reconstituted in HCT116 cells lacking both BAK and BAX, Q16611 1-211 (protein)
chain: T1 chain
binding [1]: binds | binding [2]: binds

B2: BAK (wild type), reconstituted in HCT116 cells lacking both BAK and BAX (protein, UniProt Q16611 1-211)
chain: T1 chain
binding [3]: binds

B3: PUMA (protein, UniProt Q9BXH1 1-193)
chain: MARARQEGSSPEPVEGLARDGPRPFPLGRLVPSAVSCGLCEPGLAAAPAAPTLLPAAYLCAPTAPPAVTAALGGSRWPGGPRSRPRGPRPDGPQPSLSLAEQHLESPVPSAPGALAGGPTQAAPGVRGEEEQWAREIGAQLRRMADDLNAQYERRRQEEQQRHRPSPWRVLYNLIMGLLPLPRGHRAPEMEPN
binding [3]: binds

B4: BAK Y108A mutant (protein, UniProt Q16611 1-211)
chain: T1 chain with Y108A
binding (BAK Y108A mutant): binds

B5: BAK S117A mutant (protein, UniProt Q16611 1-211)
chain: T1 chain with S117A
binding (BAK S117A mutant): binds

B6: PUMA, Q9BXH1 1-193 (protein)
chain: B3 chain
binding [4]: binds
